Data taken from the supplement of paper PMC12067093, “Discovery and optimisation of a covalent ligand for TRIM25 and its application to targeted protein ubiquitination” (Chemical Science, 2025).
The other results are listed elsewhere or left out.

Protein sequences, listed by entry. Tags and fused reporters are not part of them. Lines headed by an entry give the natural chain unless they say otherwise; changes in a name come on top.
UniProt Q92547, whole entry, looked up: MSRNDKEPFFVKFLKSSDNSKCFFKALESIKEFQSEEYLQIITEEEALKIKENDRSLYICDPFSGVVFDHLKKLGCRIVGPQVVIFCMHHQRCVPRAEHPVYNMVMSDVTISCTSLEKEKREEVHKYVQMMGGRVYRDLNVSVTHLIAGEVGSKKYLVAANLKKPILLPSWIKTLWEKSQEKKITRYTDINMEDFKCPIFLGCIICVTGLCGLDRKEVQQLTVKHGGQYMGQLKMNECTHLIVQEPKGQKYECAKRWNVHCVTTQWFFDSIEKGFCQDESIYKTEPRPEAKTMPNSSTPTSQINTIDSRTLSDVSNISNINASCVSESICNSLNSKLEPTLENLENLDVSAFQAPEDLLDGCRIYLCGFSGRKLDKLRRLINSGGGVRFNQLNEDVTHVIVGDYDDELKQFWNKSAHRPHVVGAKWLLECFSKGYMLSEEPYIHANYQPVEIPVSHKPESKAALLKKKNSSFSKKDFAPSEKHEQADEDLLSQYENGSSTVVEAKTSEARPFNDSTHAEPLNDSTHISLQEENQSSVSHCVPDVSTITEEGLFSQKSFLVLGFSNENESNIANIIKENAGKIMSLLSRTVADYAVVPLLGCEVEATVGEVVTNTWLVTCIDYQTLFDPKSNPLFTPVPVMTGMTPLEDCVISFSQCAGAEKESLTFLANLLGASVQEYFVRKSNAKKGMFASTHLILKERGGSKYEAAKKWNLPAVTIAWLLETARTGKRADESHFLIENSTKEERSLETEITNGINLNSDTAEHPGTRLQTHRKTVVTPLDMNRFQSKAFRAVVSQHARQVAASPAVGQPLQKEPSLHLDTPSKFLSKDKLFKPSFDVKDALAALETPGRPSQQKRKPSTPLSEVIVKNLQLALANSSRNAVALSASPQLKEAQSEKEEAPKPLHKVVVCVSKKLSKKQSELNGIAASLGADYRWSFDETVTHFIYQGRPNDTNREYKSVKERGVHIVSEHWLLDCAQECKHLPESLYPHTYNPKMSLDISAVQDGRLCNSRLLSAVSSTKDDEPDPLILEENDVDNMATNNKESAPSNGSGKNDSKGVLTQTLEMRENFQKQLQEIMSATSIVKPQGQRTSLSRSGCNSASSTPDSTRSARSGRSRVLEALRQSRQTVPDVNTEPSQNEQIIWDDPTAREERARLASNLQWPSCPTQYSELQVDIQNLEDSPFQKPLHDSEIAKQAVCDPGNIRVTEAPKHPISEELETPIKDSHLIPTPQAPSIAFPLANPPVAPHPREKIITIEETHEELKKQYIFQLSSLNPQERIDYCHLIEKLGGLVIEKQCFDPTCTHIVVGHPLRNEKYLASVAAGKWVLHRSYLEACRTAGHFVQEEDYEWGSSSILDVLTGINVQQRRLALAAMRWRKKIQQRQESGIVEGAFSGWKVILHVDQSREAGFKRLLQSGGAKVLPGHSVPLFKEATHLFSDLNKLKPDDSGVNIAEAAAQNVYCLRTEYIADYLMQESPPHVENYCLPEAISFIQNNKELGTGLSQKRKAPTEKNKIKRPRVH
UniProt Q92544: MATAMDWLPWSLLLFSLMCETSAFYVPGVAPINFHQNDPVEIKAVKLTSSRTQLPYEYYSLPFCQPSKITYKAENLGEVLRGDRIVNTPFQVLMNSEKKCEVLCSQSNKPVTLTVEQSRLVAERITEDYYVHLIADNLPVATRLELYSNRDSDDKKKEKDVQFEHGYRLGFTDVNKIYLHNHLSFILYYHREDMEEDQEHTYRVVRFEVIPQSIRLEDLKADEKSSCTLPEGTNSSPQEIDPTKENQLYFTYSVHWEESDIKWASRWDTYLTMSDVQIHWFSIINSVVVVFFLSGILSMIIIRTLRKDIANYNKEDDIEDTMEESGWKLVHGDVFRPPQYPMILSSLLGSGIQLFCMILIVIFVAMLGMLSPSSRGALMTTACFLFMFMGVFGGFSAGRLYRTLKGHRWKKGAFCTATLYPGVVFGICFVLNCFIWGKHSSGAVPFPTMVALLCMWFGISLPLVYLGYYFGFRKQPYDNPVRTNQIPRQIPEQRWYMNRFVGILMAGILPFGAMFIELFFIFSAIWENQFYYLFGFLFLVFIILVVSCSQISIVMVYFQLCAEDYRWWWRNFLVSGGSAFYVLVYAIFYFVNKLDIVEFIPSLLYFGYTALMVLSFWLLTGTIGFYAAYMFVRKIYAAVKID
UniProt Q9Y490: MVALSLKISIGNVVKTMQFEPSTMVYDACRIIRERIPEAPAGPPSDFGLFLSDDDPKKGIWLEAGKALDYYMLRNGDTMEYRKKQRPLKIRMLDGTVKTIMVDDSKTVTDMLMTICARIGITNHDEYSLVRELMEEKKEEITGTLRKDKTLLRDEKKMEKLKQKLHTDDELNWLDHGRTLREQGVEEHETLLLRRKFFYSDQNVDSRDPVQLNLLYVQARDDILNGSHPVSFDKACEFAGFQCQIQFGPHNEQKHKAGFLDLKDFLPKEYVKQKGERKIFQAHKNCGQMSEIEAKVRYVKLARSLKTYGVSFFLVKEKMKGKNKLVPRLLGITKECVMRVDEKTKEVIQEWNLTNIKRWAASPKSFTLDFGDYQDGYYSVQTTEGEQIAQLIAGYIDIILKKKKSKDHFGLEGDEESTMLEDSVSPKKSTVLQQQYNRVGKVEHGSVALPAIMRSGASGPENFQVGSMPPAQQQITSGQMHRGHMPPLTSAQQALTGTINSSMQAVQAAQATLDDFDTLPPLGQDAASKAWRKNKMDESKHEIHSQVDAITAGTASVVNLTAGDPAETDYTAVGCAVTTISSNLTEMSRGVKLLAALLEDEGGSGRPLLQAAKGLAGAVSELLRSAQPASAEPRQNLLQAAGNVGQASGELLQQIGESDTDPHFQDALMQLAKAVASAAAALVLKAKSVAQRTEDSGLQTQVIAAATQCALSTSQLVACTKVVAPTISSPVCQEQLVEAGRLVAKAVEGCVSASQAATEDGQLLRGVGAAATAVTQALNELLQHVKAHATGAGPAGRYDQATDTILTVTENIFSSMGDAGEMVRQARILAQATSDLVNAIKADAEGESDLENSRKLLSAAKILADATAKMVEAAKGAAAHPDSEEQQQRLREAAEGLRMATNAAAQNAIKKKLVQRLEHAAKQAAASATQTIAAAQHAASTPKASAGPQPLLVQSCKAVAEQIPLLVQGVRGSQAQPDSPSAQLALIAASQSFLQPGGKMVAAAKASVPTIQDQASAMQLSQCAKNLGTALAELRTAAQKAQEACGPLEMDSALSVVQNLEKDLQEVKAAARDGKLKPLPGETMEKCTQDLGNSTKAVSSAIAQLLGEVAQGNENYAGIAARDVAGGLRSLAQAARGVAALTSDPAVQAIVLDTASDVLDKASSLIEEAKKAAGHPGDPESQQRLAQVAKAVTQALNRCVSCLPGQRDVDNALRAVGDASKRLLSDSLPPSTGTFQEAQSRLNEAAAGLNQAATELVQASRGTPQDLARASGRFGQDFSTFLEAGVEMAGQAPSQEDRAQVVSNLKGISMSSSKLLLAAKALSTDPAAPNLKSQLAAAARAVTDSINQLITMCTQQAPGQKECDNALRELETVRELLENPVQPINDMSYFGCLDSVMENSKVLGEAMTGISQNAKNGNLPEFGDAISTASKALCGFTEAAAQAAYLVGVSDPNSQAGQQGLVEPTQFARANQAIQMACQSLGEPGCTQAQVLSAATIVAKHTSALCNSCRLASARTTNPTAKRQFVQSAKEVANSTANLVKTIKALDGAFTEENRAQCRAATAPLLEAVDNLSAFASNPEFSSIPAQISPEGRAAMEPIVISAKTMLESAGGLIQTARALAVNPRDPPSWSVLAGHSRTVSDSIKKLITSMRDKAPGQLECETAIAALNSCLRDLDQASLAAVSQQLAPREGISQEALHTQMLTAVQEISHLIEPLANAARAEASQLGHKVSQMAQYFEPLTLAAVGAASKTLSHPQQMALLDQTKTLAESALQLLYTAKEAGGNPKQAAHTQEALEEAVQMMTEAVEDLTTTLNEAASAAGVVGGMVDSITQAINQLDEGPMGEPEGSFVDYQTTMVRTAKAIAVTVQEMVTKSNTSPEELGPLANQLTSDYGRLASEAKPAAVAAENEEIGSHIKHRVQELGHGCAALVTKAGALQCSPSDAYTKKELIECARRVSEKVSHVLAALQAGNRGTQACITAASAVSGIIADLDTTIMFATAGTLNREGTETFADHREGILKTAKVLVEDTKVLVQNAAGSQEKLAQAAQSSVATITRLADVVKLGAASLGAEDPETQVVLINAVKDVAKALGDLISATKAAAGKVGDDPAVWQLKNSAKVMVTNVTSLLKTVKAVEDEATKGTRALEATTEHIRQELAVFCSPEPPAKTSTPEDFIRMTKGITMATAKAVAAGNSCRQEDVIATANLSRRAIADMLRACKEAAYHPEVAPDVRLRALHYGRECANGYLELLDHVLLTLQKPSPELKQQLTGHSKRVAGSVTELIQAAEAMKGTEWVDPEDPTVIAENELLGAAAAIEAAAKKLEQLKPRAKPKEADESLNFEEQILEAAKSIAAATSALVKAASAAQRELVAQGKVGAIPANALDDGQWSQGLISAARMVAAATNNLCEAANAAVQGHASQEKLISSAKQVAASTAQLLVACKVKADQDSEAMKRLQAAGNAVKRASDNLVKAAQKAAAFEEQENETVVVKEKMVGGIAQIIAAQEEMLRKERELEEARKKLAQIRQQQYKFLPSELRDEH
UniProt Q02880: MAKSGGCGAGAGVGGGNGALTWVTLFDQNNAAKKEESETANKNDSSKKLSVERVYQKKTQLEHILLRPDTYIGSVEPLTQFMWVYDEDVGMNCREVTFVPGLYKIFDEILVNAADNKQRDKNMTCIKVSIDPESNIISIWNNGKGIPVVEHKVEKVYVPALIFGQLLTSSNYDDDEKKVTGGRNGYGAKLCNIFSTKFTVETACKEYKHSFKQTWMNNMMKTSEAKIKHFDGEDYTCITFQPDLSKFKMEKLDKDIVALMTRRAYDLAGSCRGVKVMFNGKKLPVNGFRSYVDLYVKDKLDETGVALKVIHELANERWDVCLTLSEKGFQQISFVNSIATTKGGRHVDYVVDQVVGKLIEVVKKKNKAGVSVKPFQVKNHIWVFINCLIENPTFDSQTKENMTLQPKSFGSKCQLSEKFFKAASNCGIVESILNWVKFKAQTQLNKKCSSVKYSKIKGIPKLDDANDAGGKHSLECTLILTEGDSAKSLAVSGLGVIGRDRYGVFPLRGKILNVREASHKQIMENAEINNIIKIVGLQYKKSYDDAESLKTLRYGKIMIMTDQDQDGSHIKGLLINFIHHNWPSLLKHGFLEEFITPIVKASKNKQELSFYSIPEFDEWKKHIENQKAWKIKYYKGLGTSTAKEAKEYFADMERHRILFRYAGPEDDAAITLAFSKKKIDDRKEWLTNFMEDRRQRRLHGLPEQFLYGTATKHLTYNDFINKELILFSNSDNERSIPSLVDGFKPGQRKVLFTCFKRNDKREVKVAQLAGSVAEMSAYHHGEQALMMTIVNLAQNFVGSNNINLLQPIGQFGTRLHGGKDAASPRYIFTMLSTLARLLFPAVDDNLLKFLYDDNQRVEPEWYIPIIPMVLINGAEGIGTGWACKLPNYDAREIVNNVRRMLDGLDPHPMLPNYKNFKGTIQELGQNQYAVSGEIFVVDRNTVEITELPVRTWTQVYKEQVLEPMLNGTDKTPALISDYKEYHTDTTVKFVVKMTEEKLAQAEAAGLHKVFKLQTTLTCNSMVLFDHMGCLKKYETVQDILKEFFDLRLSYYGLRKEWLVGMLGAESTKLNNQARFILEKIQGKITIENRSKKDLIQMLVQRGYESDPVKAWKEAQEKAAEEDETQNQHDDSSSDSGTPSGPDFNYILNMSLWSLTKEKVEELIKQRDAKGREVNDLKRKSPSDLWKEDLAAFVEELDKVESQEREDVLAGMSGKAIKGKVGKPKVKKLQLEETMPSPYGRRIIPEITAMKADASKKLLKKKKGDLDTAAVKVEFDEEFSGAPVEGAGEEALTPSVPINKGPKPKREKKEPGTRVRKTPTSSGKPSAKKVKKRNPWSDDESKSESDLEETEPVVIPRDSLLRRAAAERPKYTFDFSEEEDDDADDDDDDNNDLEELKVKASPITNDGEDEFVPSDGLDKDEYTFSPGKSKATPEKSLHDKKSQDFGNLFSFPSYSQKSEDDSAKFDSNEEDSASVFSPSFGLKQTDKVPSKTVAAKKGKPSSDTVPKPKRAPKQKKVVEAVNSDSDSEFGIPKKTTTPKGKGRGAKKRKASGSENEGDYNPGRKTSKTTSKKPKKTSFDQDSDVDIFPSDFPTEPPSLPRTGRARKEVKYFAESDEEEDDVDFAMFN
UniProt Q9Y3Q3: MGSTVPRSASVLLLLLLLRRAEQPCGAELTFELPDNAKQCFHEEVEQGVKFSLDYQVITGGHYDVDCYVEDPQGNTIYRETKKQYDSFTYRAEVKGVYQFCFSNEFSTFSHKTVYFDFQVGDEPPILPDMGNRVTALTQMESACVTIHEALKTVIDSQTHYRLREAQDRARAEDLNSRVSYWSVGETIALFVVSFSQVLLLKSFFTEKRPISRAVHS

compound: CC1Cc2ccccc2N1C(=O)C1CCCN(C1)C(=O)CCl (mixture of isomers) [TRIM25 ligand 11 (diastereomer mixture)]; assay: probe-labelled cysteine peptide fold change vs DMSO (competition) (log2 fold change); higher = less target engagement (more negative = stronger competition); conditions: 10 µM; THP-1; incubation time: 4 h
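Further: competitive chemoproteomic profiling in live THP-1 cells with an iodoacetamide desthiobiotin (IA-DTB) probe, comparing probe-labelled peptide intensities in compound-treated cells against DMSO-treated controls.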

| Target | probe-labelled cysteine peptide fold change |
| --- | --- |
| TP53BP1_Q12888_1040_TMSVLSCICEAR (UniProt Q12888) | -0.0737 |
| TOP3B_O95985_442_IGPELFTCSGK (UniProt O95985) | 0.00204 |
| TMEM94_Q12767_459_SFCHPEPHER (UniProt Q12767) | 0.249 |
| TMCO6_Q96DC7_57_NDAPEEAGEGCVAAILGETEVQQFLR (UniProt Q96DC7) | 0.0856 |
| TMEM9B_Q9NQ34_66+68_DCDCLHVVEPMPVR (UniProt Q9NQ34) | 0.267 |
| TMEM161A_Q9NX61_33_WLLCNGSLFR (UniProt Q9NX61) | -0.147 |
| TMEM173_Q86WV6_206_LYILLPLDCGVPDNLSMADPNIR (UniProt Q86WV6) | -0.0611 |
| TMED4_Q7Z7H5_41_CFIEEIPDETMVIGNYR (UniProt Q7Z7H5) | 0.0888 |
| TNPO1_Q92973_164_ICEDSAEILDSDVLDRPLNIMIPK (UniProt Q92973) | -0.0514 |
| TOP1_P11387_504+505_EEGETADTVGCCSLR (UniProt P11387) | 0.0887 |
| TOR2A_Q5JU69_271_HCVLNELAQLGLEPR (UniProt Q5JU69) | 0.1 |
| TMEM131L_A2VDJ0_352_IASFTCK (UniProt A2VDJ0) | -0.0719 |
| TONSL_Q96HA7_231_ECAHTMR (UniProt Q96HA7) | -0.264 |
| TOPBP1_Q92547_1200_QAVCDPGNIR (UniProt Q92547) | 0.0229 |
| TMED8_Q6PL24_161_KVSPPLMAPPCIWTFAK (UniProt Q6PL24) | -0.212 |
| TM9SF4_Q92544_100+104_KCEVLCSQSNKPVTLTVEQSR (UniProt Q92544) | -0.00665 |
| TLN1_Q9Y490_1671_APGQLECETAIAALNSCLR (UniProt Q9Y490) | 0.0258 |
| TOR2A_Q5JU69_43_CTLGAFCECDFRPDLPGLECDLAQHLAGQHLAK (UniProt Q5JU69) | 0.195 |
| TLN1_Q9Y490_1661+1671_APGQLECETAIAALNSCLR (UniProt Q9Y490) | -0.336 |
| TOMM34_Q15785_236_ALCYLVLK (UniProt Q15785) | 0.00178 |

| Target | probe-labelled cysteine peptide fold change |
| --- | --- |
| TMEM33_P57088_232_LCLQSIAFISR (UniProt P57088) | -0.128 |
| TNIP2_Q8NFZ5_428_HVAECCQ (UniProt Q8NFZ5) | 0.0234 |
| TONSL_Q96HA7_30_EEAALCHQLGELLAGHGR (UniProt Q96HA7) | 0.02 |
| TLN1_Q9Y490_2161_ALEATTEHIRQELAVFCSPEPPAK (UniProt Q9Y490) | -0.0662 |
| TOB2_Q14106_120_VLYLDDSEGCGAPELDK (UniProt Q14106) | -0.297 |
| TOP2A_P11388_733_VLFTCFK (UniProt P11388) | 0.0957 |
| TLN2_Q9Y4G6_1204_AVSHSLNNCVNCLPGQK (UniProt Q9Y4G6) | 0.0384 |
| TOPBP1_Q92547_430_WLLECFSK (UniProt Q92547) | -0.0487 |
| TOP2B_Q02880_237_HFDGEDYTCITFQPDLSK (UniProt Q02880) | 0.0241 |
| TMED3_Q9Y3Q3_40_QCFHEEVEQGVK (UniProt Q9Y3Q3) | 0.00292 |
| TLR2_O60603_353_VFLVPCLLSQHLK (UniProt O60603) | -0.0371 |
| TOP2B_Q02880_204_FTVETACK (UniProt Q02880) | -0.00659 |
| TOMM40_O96008_354_FQCGFGLTIG (UniProt O96008) | -0.0985 |
| TM9SF4_Q92544_227_SSCTLPEGTNSSPQEIDPTK (UniProt Q92544) | 0.304 |
| TLN2_Q9Y4G6_1663_ECDYSIDGINR (UniProt Q9Y4G6) | 0.244 |
| TNS3_Q68CZ2_227_ICIVIEPAQLLK (UniProt Q68CZ2) | -0.207 |
| TMEM147_Q9BVK8_116_CIPLWVGAR (UniProt Q9BVK8) | 0.0725 |
| TOP1_P11387_504_EEGETADTVGCCSLR (UniProt P11387) | 0.143 |
| TOP2A_P11388_733_KVLFTCFK (UniProt P11388) | -0.276 |
